These results are taken from paper PMC7819943, “Rice protein-binding microarrays: a tool to detect cis-acting elements near promoter regions in rice”.

Amino acid sequences for entries named in this document (tags omitted).
UniProt Q0JBA9, entry or part of it: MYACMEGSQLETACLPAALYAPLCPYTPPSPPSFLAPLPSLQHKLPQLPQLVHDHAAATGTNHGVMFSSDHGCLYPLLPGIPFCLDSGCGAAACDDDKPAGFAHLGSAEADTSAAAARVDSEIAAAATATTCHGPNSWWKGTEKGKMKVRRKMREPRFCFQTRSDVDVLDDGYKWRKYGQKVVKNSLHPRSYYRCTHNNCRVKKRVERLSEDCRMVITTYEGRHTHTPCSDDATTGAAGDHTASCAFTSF

Some of the results follow.

The target of this test is OsWRKY34 (Oryza sativa, UniProt Q0JBA9 1-250). Put plainly: protein-binding microarray (RPBM); PBS, 2% BSA, 51.3 ng/ul salmon testes DNA, 50 uM zinc acetate, 200 nM TF, 25 C, 1 h; high values mean tight binding. As to conditions: protein: recombinant; tags: N-terminal polyhistidine and DsRed monomer fusion (pET32a); label: CyDye5-dUTP incorporated in the synthesized complementary strand; 3' TTTTT single-stranded linker to array surface; dsDNA, one strand shown. The method, boiled down:
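The binding signal is fluorescence intensity per feature, in arbitrary units, read on an Axon 4000B scanner. Polyhistidine- and DsRed-tagged transcription factors (N-terminal fusions) from E. coli BL21-CodonPlus were purified on Ni–NTA and applied at 200 nM for 1 h at 25 °C to a double-stranded, BSA-blocked custom Agilent array in buffer with 50 µM zinc acetate.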
In the case of “GCTATCATTTATAGATTTAACCACGGTTTCTTTGTCTTTGCGGAGTCACCTAGTGCAG”, the binding signal is 9070 fluorescence intensity (a.u.). For the sequence “GAATCCTTTTATCCACGCTCTCTACACATTTTTTTTGACGCGGAGTCACCTAGTGCAG”, the binding signal was 11000 fluorescence intensity (a.u.).

For “TTTTTATGGCCTTGTTACCCTCTTGTATAGCCCGTCCATACGGAGTCACCTAGTGCAG”, the binding signal was 9120 fluorescence intensity (a.u.). In the case of “CCATTACCAGAACAGAACAGCAGGTTTTAACCTAACATTCCGGAGTCACCTAGTGCAG”, the binding signal is 8110 fluorescence intensity (a.u.). Under “AATCATCCGAATCGAATCGCCCACTTCTCCTCTCGATCCGCGGAGTCACCTAGTGCAG” stands 11500 fluorescence intensity (a.u.). Take “AATTTTCTCCTTTTATCTCCTCTCAAGCATATAACACAATCGGAGTCACCTAGTGCAG”: the binding signal is 8480 fluorescence intensity (a.u.). The figure for “ATCCATCTTAATTCGCTTCTACATTGGGGCGCTTGTTAATCGGAGTCACCTAGTGCAG” is 13200 fluorescence intensity (a.u.); for “ACACGTGCATGTCTTCTTATCCATCTCTATCCATCTGCATCGGAGTCACCTAGTGCAG” it is 9580 fluorescence intensity (a.u.); for “CCGCGCTTCCATCTCCGGCGGTCCGGTCTATCCTCTCCGCCGGAGTCACCTAGTGCAG” it is 10000 fluorescence intensity (a.u.).

In the case of “TCACACTCACATAGCTATATTTTTTATATTATGGACATCACGGAGTCACCTAGTGCAG”, the binding signal is 8260 fluorescence intensity (a.u.). Under “AAAACTTCGACCTGCTCTACTCCCTTTTTGAGTGAAACCACGGAGTCACCTAGTGCAG” stands 8610 fluorescence intensity (a.u.); under “CGTACCGTTGCACCACCACCACCACCCGCAACTCGCAACGCGGAGTCACCTAGTGCAG”, 9770 fluorescence intensity (a.u.). Regarding “GCTTCGTTGGCTCCGTGAAACTGTCTCTCTCTCCCAACTCCGGAGTCACCTAGTGCAG”, the binding signal was 8030 fluorescence intensity (a.u.). In the case of “TGTTCCAATCCCATCCATTCCATTCCATTCCTTCTCCCTGCGGAGTCACCTAGTGCAG”, the binding signal was 10900 fluorescence intensity (a.u.).

Consider “TATTGCCTTGTTTTTCTTTTTTTTCCCCTCTCTTTTTCTACGGAGTCACCTAGTGCAG”, for which the binding signal was 9270 fluorescence intensity (a.u.). The figure for “CTCTCTCTCCACGCAGAATGCTGCTTTCCCGTTATTTTCTCGGAGTCACCTAGTGCAG” is 11200 fluorescence intensity (a.u.).

Regarding “GTTCCGGAAGGTGTGGAGTCTCGGTGCCCTCGTCGCTCGCCGGAGTCACCTAGTGCAG”, the binding signal was 8180 fluorescence intensity (a.u.). Take “CAAATCAGTGCTGCTGGTTACGGATAAGCCTCTCTTTTCCCGGAGTCACCTAGTGCAG”: the binding signal is 11800 fluorescence intensity (a.u.). The figure for “TCTTGTTTAGATCCTGTCCGTTGCCTTTTCTCTTTTCCATCGGAGTCACCTAGTGCAG” is 8780 fluorescence intensity (a.u.); for “GATGGGCGGGCTAGGGTTTGGGATTAGGCAACCAGCTGTGCGGAGTCACCTAGTGCAG” it is 9070 fluorescence intensity (a.u.). In the case of “ACCGCGTGCATGTTTCTGAACCGTTAAACGGTGTATATATCGGAGTCACCTAGTGCAG”, the binding signal is 8800 fluorescence intensity (a.u.). Under “CGGGAGGGGAGGGGAATGGATGTGGGGAGGAGAGAGACTGCGGAGTCACCTAGTGCAG” stands 12600 fluorescence intensity (a.u.); under “CGCGCGCCGTCGCCGCCGCCGCCGCCTCCGCCTCCGCCTCCGGAGTCACCTAGTGCAG”, 8860 fluorescence intensity (a.u.).

As for “GGCTTTTATGGGGCGGGCTTTCTTTGGTCAATGGTCACTACGGAGTCACCTAGTGCAG”, the binding signal was 32200 fluorescence intensity (a.u.). The figure for “CAGTTCACTGCTGTCTCTAGCTCGTACCGGCTCAGTTCATCGGAGTCACCTAGTGCAG” is 10800 fluorescence intensity (a.u.).

In the case of “GTATGGGTTGCGAGTGATTTATTATACCTTCTTGGTGAGACGGAGTCACCTAGTGCAG”, the binding signal is 9750 fluorescence intensity (a.u.). Take “TCGGAGCTATATTAGCCGTTGACCCCGGCAATGTCAACTTCGGAGTCACCTAGTGCAG”: the binding signal is 9680 fluorescence intensity (a.u.). As for “ATTCAATTCGTTCGCTCCACTAATCTTAAAAGCCATTATTCGGAGTCACCTAGTGCAG”, the binding signal is 8270 fluorescence intensity (a.u.). The figure for “TGCCGTGTTTGGTGTTGGATCCTCCGTCTTCCCCACAAGGCGGAGTCACCTAGTGCAG” is 8290 fluorescence intensity (a.u.); for “AATGTGTATCCGTATATTTGATATGACACGCCAAAACTTTCGGAGTCACCTAGTGCAG” it is 8200 fluorescence intensity (a.u.); for “GTATGTAACACATTTGATCGTCGTCTTTGAGTGGTTTGACCGGAGTCACCTAGTGCAG” it is 8520 fluorescence intensity (a.u.). Take “CTCTCTCCTCCTCCGTGGGCTTCTCCAGATCCGCCCTCTTCGGAGTCACCTAGTGCAG”: the binding signal was 9350 fluorescence intensity (a.u.). Under “GTGGCTTTCTGATTATATGCATGTTCCATATGGGTTTGCACGGAGTCACCTAGTGCAG” stands 9370 fluorescence intensity (a.u.).

As to “TTCTTTCGGGGTCTATTTTGTAAAAATACACTGTCACTACCGGAGTCACCTAGTGCAG”, the binding signal was 8780 fluorescence intensity (a.u.).

In the case of “CTCTCCACCTCGCGCCCACGCGACACAACACACAGACACACGGAGTCACCTAGTGCAG”, the binding signal was 8420 fluorescence intensity (a.u.). Under “CCTAAATATGTGGTCATATGCGTATTTTTTTTTATTTCTTCGGAGTCACCTAGTGCAG” stands 9500 fluorescence intensity (a.u.); under “TTATTTCCGCAAATCGTTCGCTATCCGGTATATTTTTGCACGGAGTCACCTAGTGCAG”, 17300 fluorescence intensity (a.u.); under “CCGCCGCCCGCACGCCGCCGCTCGGCCGCCCGCACCACCGCGGAGTCACCTAGTGCAG”, 8530 fluorescence intensity (a.u.). Under “GCGGTGGTGCGCCTCTTGTCTCTCTGTGCTGCTCTCACTACGGAGTCACCTAGTGCAG” stands 10800 fluorescence intensity (a.u.); under “ATTCAATGCTTGCCGCCGCTCTTCGAACCTCATCAAAACTCGGAGTCACCTAGTGCAG”, 9020 fluorescence intensity (a.u.). For “GTATTTTAAGCATATTTTTTCGTTTTTTATATTTGTAAAACGGAGTCACCTAGTGCAG”, the binding signal was 11000 fluorescence intensity (a.u.). Under “TTTTCCACGCGCACGCTTCCCAAACTGTTAAATGGTATGTCGGAGTCACCTAGTGCAG” stands 10400 fluorescence intensity (a.u.); under “GTCTCCGTCTCCGTCCTTGGGTTGATATCCAGAATCAGTCCGGAGTCACCTAGTGCAG”, 8800 fluorescence intensity (a.u.). On to “GTACTTGTGTTATTGCTTTTAAATTAGAGTACTCCCTAGTCGGAGTCACCTAGTGCAG”, for which the binding signal was 9130 fluorescence intensity (a.u.). The figure for “CTTCTTCTTCTTTCTCGCCTCCTCTCTTTTCTCTTCTCTTCGGAGTCACCTAGTGCAG” is 8350 fluorescence intensity (a.u.); for “GCTTGATCATCGGCCTCAACACCCTGCATATGTGTATTCTCGGAGTCACCTAGTGCAG” it is 10400 fluorescence intensity (a.u.); for “ATTGCCTGTCTTTCTTCATCATCTTAAGTTTTTGAGTTAACGGAGTCACCTAGTGCAG” it is 8970 fluorescence intensity (a.u.). Under “TATTTGCTTGCATCTTGGGGATCTTGATTCTCTGGGACATCGGAGTCACCTAGTGCAG” stands 9720 fluorescence intensity (a.u.). Under “AAATGCCCATCTGTTTGTACATTATCTTACCAAGGATTTTCGGAGTCACCTAGTGCAG” stands 8270 fluorescence intensity (a.u.); under “AGTAATTTTGTTCTGATTGCATGTCTCAACAGGATGTAGACGGAGTCACCTAGTGCAG”, 8550 fluorescence intensity (a.u.). Turning to “CGTTTTGTGCTGGGCCATATTGGGCTTTACCATAACTTTCCGGAGTCACCTAGTGCAG”, the binding signal is 9850 fluorescence intensity (a.u.). On to “GAGTTTTTACTTTGTAATGTTTGACCACTCGTCTTATTCACGGAGTCACCTAGTGCAG”, for which the binding signal is 8880 fluorescence intensity (a.u.).

As to “TGGTCTGGCAGTTTTTGAGACGGGGAGTTGACTCAGATATCGGAGTCACCTAGTGCAG”, the binding signal was 9260 fluorescence intensity (a.u.). Turning to “TGTAATTTCCTACCGTGTTTTTCTACACTTTATCACCAATCGGAGTCACCTAGTGCAG”, the binding signal is 8190 fluorescence intensity (a.u.).
